Assay results from the supplement of paper PMC12823440, “Inhibitors supercharge kinase turnover through native proteolytic circuits” (Nature, 2025).
Structures can show the parent of a compound that is named as a salt. Some of the results follow. Hit calls seldom repeat between salt and free forms of one compound.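 Kinases were expressed as nanoluciferase fusions in K562 cells and luminescence was read every 4 h between 2 and 18 h as percent of control, DMSO set to 100% and a positive control to 0%. A time point counts as decreased when the signal drops significantly (2 sigma). The hit call is the authors' own, does not follow from the count of time points alone, and its rule is not shown.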

Sequences of proteins named here, by UniProt entry; tags and fusion partners are left off. A change or cut given only in a name is not applied to a line headed by its entry.
UniProt O15530: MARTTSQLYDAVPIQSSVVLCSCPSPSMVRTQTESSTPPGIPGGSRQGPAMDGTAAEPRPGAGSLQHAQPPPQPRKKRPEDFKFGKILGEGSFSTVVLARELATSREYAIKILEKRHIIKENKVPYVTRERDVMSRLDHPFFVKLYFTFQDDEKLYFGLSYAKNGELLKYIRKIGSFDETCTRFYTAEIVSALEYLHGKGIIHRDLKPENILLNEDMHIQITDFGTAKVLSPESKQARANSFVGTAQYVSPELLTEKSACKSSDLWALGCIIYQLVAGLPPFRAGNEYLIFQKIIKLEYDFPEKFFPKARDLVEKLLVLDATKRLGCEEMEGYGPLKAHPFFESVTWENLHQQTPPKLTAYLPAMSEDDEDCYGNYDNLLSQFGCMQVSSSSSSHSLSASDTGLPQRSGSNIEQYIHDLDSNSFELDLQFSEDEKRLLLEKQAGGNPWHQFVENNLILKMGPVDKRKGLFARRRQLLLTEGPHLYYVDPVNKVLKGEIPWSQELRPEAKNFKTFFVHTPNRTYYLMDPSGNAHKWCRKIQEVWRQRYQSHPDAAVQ
UniProt P53350, whole entry: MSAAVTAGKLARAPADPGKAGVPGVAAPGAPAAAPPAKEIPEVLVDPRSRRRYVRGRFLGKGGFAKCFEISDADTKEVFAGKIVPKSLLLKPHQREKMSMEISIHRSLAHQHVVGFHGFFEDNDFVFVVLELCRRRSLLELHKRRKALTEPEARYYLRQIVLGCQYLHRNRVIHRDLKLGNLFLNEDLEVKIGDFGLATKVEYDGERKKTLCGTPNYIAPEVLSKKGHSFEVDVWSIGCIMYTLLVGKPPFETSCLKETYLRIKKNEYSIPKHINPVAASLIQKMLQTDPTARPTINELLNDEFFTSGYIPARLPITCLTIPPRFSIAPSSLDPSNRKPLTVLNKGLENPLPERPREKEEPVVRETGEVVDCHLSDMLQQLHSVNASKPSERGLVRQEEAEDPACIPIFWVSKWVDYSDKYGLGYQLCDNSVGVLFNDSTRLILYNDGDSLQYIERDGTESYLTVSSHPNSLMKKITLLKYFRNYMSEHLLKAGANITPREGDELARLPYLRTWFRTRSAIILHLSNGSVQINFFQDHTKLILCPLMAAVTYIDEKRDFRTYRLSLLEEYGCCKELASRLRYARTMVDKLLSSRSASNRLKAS
UniProt Q13131: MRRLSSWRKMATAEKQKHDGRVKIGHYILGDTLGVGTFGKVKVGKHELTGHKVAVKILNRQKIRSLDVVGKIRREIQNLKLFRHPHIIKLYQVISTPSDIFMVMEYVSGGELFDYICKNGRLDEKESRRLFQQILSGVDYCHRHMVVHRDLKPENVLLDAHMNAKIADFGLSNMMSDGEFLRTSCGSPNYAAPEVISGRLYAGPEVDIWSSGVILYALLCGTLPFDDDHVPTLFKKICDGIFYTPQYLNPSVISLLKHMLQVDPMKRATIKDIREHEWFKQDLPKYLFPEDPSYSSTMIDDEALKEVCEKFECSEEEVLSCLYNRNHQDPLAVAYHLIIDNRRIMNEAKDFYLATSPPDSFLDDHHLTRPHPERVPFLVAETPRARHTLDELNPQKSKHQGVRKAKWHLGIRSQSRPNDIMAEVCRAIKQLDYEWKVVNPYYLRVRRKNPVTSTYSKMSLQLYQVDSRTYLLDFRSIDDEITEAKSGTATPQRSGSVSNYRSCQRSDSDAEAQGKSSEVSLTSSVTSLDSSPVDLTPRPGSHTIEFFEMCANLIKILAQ
UniProt Q05397, whole entry, looked up: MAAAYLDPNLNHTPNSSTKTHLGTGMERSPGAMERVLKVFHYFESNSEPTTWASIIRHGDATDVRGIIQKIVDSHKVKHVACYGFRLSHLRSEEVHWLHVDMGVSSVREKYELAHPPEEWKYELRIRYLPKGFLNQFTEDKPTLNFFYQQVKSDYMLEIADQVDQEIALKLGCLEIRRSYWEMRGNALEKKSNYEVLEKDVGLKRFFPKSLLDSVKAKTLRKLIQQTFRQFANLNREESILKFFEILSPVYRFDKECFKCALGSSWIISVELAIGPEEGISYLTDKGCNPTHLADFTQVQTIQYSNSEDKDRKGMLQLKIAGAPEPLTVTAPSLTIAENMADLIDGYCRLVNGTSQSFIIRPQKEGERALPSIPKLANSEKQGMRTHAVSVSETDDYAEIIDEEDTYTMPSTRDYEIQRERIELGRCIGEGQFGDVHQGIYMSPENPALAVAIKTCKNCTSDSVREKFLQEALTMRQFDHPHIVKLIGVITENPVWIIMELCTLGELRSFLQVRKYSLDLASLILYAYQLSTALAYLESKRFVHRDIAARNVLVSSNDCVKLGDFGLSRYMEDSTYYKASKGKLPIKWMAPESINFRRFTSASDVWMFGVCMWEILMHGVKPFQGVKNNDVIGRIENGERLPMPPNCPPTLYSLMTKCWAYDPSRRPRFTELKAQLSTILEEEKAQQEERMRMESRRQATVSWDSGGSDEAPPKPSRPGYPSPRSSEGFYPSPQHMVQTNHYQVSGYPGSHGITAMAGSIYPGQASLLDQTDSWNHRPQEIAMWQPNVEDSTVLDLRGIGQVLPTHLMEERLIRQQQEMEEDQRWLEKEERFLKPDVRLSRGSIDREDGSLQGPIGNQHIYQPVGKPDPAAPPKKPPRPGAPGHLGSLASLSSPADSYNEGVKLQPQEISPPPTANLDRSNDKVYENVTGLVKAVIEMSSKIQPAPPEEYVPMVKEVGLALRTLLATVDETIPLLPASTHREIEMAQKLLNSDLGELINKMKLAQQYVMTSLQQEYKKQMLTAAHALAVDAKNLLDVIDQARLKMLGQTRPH
UniProt Q14289, whole entry, looked up: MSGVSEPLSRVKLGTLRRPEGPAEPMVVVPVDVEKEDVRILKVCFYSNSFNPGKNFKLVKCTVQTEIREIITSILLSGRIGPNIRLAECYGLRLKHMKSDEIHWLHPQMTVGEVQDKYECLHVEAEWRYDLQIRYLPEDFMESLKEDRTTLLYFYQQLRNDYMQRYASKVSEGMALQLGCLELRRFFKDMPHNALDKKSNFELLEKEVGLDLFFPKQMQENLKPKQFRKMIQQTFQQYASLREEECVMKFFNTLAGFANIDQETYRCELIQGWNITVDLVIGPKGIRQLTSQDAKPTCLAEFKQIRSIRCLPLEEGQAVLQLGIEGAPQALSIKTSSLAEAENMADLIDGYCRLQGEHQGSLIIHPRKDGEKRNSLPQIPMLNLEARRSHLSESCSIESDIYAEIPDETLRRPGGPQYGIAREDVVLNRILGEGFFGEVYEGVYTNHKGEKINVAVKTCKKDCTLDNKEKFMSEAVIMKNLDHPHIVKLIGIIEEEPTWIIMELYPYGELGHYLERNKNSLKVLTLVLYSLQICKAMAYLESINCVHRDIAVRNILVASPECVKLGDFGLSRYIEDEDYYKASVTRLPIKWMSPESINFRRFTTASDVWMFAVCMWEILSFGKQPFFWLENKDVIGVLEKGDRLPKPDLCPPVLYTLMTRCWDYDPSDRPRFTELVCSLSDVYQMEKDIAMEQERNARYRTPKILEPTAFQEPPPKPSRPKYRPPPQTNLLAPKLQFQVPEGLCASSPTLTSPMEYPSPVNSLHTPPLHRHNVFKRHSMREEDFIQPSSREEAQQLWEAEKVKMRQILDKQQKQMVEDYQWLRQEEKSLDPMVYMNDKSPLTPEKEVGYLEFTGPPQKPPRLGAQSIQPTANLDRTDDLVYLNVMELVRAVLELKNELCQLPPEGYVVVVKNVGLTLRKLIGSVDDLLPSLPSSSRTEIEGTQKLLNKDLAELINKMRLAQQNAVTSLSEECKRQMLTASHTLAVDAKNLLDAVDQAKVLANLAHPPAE
UniProt Q9BRS2: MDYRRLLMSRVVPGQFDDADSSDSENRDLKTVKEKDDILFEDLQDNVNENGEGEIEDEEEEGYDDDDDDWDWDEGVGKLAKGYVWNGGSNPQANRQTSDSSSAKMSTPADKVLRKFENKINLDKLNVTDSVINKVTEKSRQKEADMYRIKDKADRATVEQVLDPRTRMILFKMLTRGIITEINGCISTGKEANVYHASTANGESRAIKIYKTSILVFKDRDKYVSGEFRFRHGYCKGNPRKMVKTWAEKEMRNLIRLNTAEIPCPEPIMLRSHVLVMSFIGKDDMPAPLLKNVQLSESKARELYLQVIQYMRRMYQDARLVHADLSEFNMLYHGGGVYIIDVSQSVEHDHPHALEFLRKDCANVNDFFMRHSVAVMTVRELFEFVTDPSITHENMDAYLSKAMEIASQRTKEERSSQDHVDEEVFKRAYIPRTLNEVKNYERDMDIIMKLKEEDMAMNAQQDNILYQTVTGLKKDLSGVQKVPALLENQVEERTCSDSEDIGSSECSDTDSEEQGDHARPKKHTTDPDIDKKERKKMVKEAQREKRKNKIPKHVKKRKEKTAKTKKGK
UniProt Q15418, whole entry: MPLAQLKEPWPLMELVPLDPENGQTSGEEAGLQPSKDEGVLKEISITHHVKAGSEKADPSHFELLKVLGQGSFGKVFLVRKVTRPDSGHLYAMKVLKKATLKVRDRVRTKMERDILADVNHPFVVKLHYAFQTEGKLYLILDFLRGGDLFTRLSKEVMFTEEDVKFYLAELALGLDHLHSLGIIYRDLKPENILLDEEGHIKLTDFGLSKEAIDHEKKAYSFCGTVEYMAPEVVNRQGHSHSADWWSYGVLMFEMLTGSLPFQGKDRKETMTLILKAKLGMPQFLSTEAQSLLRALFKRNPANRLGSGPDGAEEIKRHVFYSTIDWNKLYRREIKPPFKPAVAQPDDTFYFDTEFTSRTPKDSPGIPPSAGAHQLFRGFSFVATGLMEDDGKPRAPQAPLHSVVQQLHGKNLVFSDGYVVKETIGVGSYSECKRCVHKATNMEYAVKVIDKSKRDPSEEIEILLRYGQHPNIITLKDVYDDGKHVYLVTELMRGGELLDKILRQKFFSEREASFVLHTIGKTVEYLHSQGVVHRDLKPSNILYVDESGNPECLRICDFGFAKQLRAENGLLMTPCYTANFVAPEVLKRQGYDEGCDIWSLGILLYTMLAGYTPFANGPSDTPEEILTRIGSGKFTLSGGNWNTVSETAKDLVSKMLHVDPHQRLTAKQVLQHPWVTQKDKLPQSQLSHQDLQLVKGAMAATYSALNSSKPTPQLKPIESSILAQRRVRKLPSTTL
UniProt Q9NYA1, whole entry: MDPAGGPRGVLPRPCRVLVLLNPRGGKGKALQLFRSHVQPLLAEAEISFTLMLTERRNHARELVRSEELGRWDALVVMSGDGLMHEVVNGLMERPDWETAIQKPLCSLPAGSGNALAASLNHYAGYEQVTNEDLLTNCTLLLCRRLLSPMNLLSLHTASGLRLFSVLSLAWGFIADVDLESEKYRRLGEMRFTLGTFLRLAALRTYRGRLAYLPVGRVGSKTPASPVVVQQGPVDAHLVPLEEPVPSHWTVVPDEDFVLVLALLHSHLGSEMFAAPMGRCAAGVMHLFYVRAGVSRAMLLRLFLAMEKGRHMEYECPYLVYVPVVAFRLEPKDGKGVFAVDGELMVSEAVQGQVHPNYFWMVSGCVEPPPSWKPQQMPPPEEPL
UniProt Q9Y6E0: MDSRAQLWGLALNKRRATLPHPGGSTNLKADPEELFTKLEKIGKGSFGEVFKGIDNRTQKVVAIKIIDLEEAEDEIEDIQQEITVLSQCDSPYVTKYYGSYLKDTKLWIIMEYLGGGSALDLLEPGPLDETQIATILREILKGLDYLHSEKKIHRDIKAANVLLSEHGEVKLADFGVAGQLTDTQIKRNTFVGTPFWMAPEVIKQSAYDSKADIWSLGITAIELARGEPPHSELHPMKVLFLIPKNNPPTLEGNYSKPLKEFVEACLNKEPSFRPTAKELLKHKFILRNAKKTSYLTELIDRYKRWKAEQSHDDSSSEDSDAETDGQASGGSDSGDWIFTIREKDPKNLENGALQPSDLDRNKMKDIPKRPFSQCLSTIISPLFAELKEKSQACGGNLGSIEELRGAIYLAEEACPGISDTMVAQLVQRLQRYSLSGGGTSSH

Assays:
Assay in all cases: kinase-Nluc reporter destabilization hit call (1 = scored as downregulated) (binary); higher = compound decreases kinase abundance
Conditions in all cases: K562, 2-18 h
[1] = target: PDPK1 (UniProt O15530)
[2] = target: PIK4CA (UniProt P42356)
[3] = target: PIK4CB (UniProt Q9UBF8)
[4] = target: PLK1 (UniProt P53350)
[5] = target: PRKAA1 (UniProt Q13131)
[6] = target: PRKCA (UniProt P17252)
[7] = target: PTK2 (UniProt Q05397)
[8] = target: PTK2B (UniProt Q14289)
[9] = target: RAF1 (UniProt P04049)
[10] = target: RAF1_S257L (clone: RAF1_mut) (UniProt P04049)
[11] = target: RET (UniProt P07949)
[12] = target: RET_M918T (clone: RET_mut) (UniProt P07949)
[13] = target: RIOK1 (UniProt Q9BRS2)
[14] = target: RIPK1 (UniProt Q13546)
[15] = target: RIPK2 (UniProt O43353)
[16] = target: ROR2 (UniProt Q01974)
[17] = target: RPS6KA1 (UniProt Q15418)
[18] = target: SPHK1 (UniProt Q9NYA1)
[19] = target: SRC (UniProt P12931)
[20] = target: STK24 (UniProt Q9Y6E0)

With `N#CCNC(=O)c1ccc(-c2ccnc(Nc3ccc(N4CCOCC4)cc3)n2)cc1` [Momelotinib] the “kinase-Nluc reporter destabilization hit call” value ([1]; 10 µM) was inactive: 0, the “kinase-Nluc reporter destabilization hit call” value ([2]; 10 µM) was inactive: 0 and the “kinase-Nluc reporter destabilization hit call” value ([3]; 10 µM) was inactive: 0. The “kinase-Nluc reporter destabilization hit call” value ([4]; 10 µM) was inactive: 0, the “kinase-Nluc reporter destabilization hit call” value ([5]; 10 µM) was inactive: 0 and the “kinase-Nluc reporter destabilization hit call” value ([6]; 10 µM) was inactive: 0. For the same compound, the “kinase-Nluc reporter destabilization hit call” value ([7]; 10 µM) was inactive: 0, the “kinase-Nluc reporter destabilization hit call” value ([8]; 10 µM) was inactive: 0 and the “kinase-Nluc reporter destabilization hit call” value ([9]; 10 µM) was inactive: 0. For the same compound, the “kinase-Nluc reporter destabilization hit call” value ([10]; 10 µM) was inactive: 0, the “kinase-Nluc reporter destabilization hit call” value ([11]; 10 µM) was inactive: 0 and the “kinase-Nluc reporter destabilization hit call” value ([12]; 10 µM) was inactive: 0. For the same compound, the “kinase-Nluc reporter destabilization hit call” value ([13]; 10 µM) was inactive: 0, the “kinase-Nluc reporter destabilization hit call” value ([14]; 10 µM) was inactive: 0 and the “kinase-Nluc reporter destabilization hit call” value ([15]; 10 µM) was inactive: 0. The “kinase-Nluc reporter destabilization hit call” value ([16]; 10 µM) was inactive: 0, the “kinase-Nluc reporter destabilization hit call” value ([17]; 10 µM) was inactive: 0 and the “kinase-Nluc reporter destabilization hit call” value ([18]; 10 µM) was inactive: 0. The “kinase-Nluc reporter destabilization hit call” value ([19]; 10 µM) was inactive: 0 and the “kinase-Nluc reporter destabilization hit call” value ([20]; 10 µM) was inactive: 0.

For `C#Cc1cccc(Nc2ncnc3cc(OCCOC)c(OCCOC)cc23)c1` [Erlotinib (Hydrochloride)], the “kinase-Nluc reporter destabilization hit call” value ([1]; 10 µM) was inactive: 0, the “kinase-Nluc reporter destabilization hit call” value ([2]; 10 µM) was inactive: 0 and the “kinase-Nluc reporter destabilization hit call” value ([3]; 10 µM) was inactive: 0. For the same compound, the “kinase-Nluc reporter destabilization hit call” value ([4]; 10 µM) was inactive: 0, the “kinase-Nluc reporter destabilization hit call” value ([5]; 10 µM) was inactive: 0 and the “kinase-Nluc reporter destabilization hit call” value ([6]; 10 µM) was inactive: 0. For the same compound, the “kinase-Nluc reporter destabilization hit call” value ([7]; 10 µM) was inactive: 0, the “kinase-Nluc reporter destabilization hit call” value ([8]; 10 µM) was inactive: 0 and the “kinase-Nluc reporter destabilization hit call” value ([9]; 10 µM) was inactive: 0. For the same compound, the “kinase-Nluc reporter destabilization hit call” value ([10]; 10 µM) was inactive: 0, the “kinase-Nluc reporter destabilization hit call” value ([11]; 10 µM) was inactive: 0 and the “kinase-Nluc reporter destabilization hit call” value ([12]; 10 µM) was inactive: 0. For the same compound, the “kinase-Nluc reporter destabilization hit call” value ([13]; 10 µM) was inactive: 0, the “kinase-Nluc reporter destabilization hit call” value ([14]; 10 µM) was inactive: 0 and the “kinase-Nluc reporter destabilization hit call” value ([15]; 10 µM) was inactive: 0. For the same compound, the “kinase-Nluc reporter destabilization hit call” value ([16]; 10 µM) was inactive: 0, the “kinase-Nluc reporter destabilization hit call” value ([17]; 10 µM) was inactive: 0 and the “kinase-Nluc reporter destabilization hit call” value ([18]; 10 µM) was inactive: 0. The “kinase-Nluc reporter destabilization hit call” value ([19]; 10 µM) was inactive: 0 and the “kinase-Nluc reporter destabilization hit call” value ([20]; 10 µM) was inactive: 0.

For `O=C(c1ccc(F)c(F)c1Nc1ccc(I)cc1F)N1CC(O)([C@@H]2CCCCN2)C1` [Cobimetinib], the “kinase-Nluc reporter destabilization hit call” value ([1]; 10 µM) was inactive: 0, the “kinase-Nluc reporter destabilization hit call” value ([2]; 10 µM) was inactive: 0 and the “kinase-Nluc reporter destabilization hit call” value ([3]; 10 µM) was inactive: 0. The “kinase-Nluc reporter destabilization hit call” value ([4]; 10 µM) was inactive: 0, the “kinase-Nluc reporter destabilization hit call” value ([5]; 10 µM) was inactive: 0 and the “kinase-Nluc reporter destabilization hit call” value ([6]; 10 µM) was inactive: 0. The “kinase-Nluc reporter destabilization hit call” value ([7]; 10 µM) was inactive: 0, the “kinase-Nluc reporter destabilization hit call” value ([8]; 10 µM) was inactive: 0 and the “kinase-Nluc reporter destabilization hit call” value ([9]; 10 µM) was active: 1. The “kinase-Nluc reporter destabilization hit call” value ([10]; 10 µM) was active: 1, the “kinase-Nluc reporter destabilization hit call” value ([11]; 10 µM) was inactive: 0 and the “kinase-Nluc reporter destabilization hit call” value ([12]; 10 µM) was inactive: 0. For the same compound, the “kinase-Nluc reporter destabilization hit call” value ([13]; 10 µM) was inactive: 0, the “kinase-Nluc reporter destabilization hit call” value ([14]; 10 µM) was inactive: 0 and the “kinase-Nluc reporter destabilization hit call” value ([15]; 10 µM) was inactive: 0. The “kinase-Nluc reporter destabilization hit call” value ([16]; 10 µM) was inactive: 0, the “kinase-Nluc reporter destabilization hit call” value ([17]; 10 µM) was inactive: 0 and the “kinase-Nluc reporter destabilization hit call” value ([18]; 10 µM) was inactive: 0. The “kinase-Nluc reporter destabilization hit call” value ([19]; 10 µM) was inactive: 0 and the “kinase-Nluc reporter destabilization hit call” value ([20]; 10 µM) was inactive: 0.

With `Cn1ncc(Cl)c1-c1cc(C(=O)N[C@H](CN)Cc2cccc(F)c2)sc1Cl` [Afuresertib] the “kinase-Nluc reporter destabilization hit call” value ([1]; 10 µM) was inactive: 0, the “kinase-Nluc reporter destabilization hit call” value ([2]; 10 µM) was inactive: 0 and the “kinase-Nluc reporter destabilization hit call” value ([3]; 10 µM) was inactive: 0. The “kinase-Nluc reporter destabilization hit call” value ([4]; 10 µM) was inactive: 0, the “kinase-Nluc reporter destabilization hit call” value ([5]; 10 µM) was inactive: 0 and the “kinase-Nluc reporter destabilization hit call” value ([6]; 10 µM) was inactive: 0. For the same compound, the “kinase-Nluc reporter destabilization hit call” value ([7]; 10 µM) was inactive: 0, the “kinase-Nluc reporter destabilization hit call” value ([8]; 10 µM) was inactive: 0 and the “kinase-Nluc reporter destabilization hit call” value ([9]; 10 µM) was inactive: 0. The “kinase-Nluc reporter destabilization hit call” value ([10]; 10 µM) was inactive: 0, the “kinase-Nluc reporter destabilization hit call” value ([11]; 10 µM) was inactive: 0 and the “kinase-Nluc reporter destabilization hit call” value ([12]; 10 µM) was inactive: 0. The “kinase-Nluc reporter destabilization hit call” value ([13]; 10 µM) was inactive: 0, the “kinase-Nluc reporter destabilization hit call” value ([14]; 10 µM) was inactive: 0 and the “kinase-Nluc reporter destabilization hit call” value ([15]; 10 µM) was inactive: 0. For the same compound, the “kinase-Nluc reporter destabilization hit call” value ([16]; 10 µM) was inactive: 0, the “kinase-Nluc reporter destabilization hit call” value ([17]; 10 µM) was inactive: 0 and the “kinase-Nluc reporter destabilization hit call” value ([18]; 10 µM) was inactive: 0. The “kinase-Nluc reporter destabilization hit call” value ([19]; 10 µM) was inactive: 0 and the “kinase-Nluc reporter destabilization hit call” value ([20]; 10 µM) was inactive: 0.

In the case of `CNC(=O)c1cc(Oc2ccc(NC(=O)Nc3ccc(Cl)c(C(F)(F)F)c3)c(F)c2)ccn1` [Regorafenib (monohydrate)], the “kinase-Nluc reporter destabilization hit call” value ([1]; 2.5 µM) was inactive: 0, the “kinase-Nluc reporter destabilization hit call” value ([2]; 2.5 µM) was inactive: 0 and the “kinase-Nluc reporter destabilization hit call” value ([3]; 2.5 µM) was inactive: 0. The “kinase-Nluc reporter destabilization hit call” value ([4]; 2.5 µM) was inactive: 0, the “kinase-Nluc reporter destabilization hit call” value ([5]; 2.5 µM) was inactive: 0 and the “kinase-Nluc reporter destabilization hit call” value ([6]; 2.5 µM) was inactive: 0. For the same compound, the “kinase-Nluc reporter destabilization hit call” value ([7]; 2.5 µM) was inactive: 0, the “kinase-Nluc reporter destabilization hit call” value ([8]; 2.5 µM) was inactive: 0 and the “kinase-Nluc reporter destabilization hit call” value ([9]; 2.5 µM) was inactive: 0. The “kinase-Nluc reporter destabilization hit call” value ([10]; 2.5 µM) was inactive: 0, the “kinase-Nluc reporter destabilization hit call” value ([11]; 2.5 µM) was inactive: 0 and the “kinase-Nluc reporter destabilization hit call” value ([12]; 2.5 µM) was inactive: 0. The “kinase-Nluc reporter destabilization hit call” value ([13]; 2.5 µM) was inactive: 0, the “kinase-Nluc reporter destabilization hit call” value ([14]; 2.5 µM) was inactive: 0 and the “kinase-Nluc reporter destabilization hit call” value ([15]; 2.5 µM) was inactive: 0. The “kinase-Nluc reporter destabilization hit call” value ([16]; 2.5 µM) was inactive: 0, the “kinase-Nluc reporter destabilization hit call” value ([17]; 2.5 µM) was inactive: 0 and the “kinase-Nluc reporter destabilization hit call” value ([18]; 2.5 µM) was inactive: 0. For the same compound, the “kinase-Nluc reporter destabilization hit call” value ([19]; 2.5 µM) was inactive: 0 and the “kinase-Nluc reporter destabilization hit call” value ([20]; 2.5 µM) was inactive: 0.
